Data set [1] in a line: Cocaine interaction crossover study: pharmacokinetics. The note with it: for AUC(0-inf): human, in vivo.

The values below come from US20200360400A1, “COMPOSITIONS AND METHODS FOR THE TREATMENT OF ADDICTION, PSYCHIATRIC DISORDERS, AND NEURODEGENERATIVE DISEASE” (Embera NeuroTherapeutics, Inc., priority 2017, published 2020).

SMILES strings stand for the structures.

For `O=C1Nc2ccc(Cl)cc2C(c2ccccc2)=NC1O` (stereo not drawn) [oxazepam], in data set [1] (EMB-001 (ERL-001)), the highest concentration (Cmax) was 653 ± 197 ng/mL and the AUC(0-inf) worked out at 6160 ng·h/mL. In addition, in data set [1] (EMB-001 + Cocaine (ERL-002)), the highest concentration (Cmax) turned out to be 602 ± 183 ng/mL and the area under the curve AUC(0-inf) was 6140 ng·h/mL. Also, the “plasma concentration in the presence of cocaine” value (effect of cocaine on the drug's plasma concentration) is reported as “did not affect”. Further, where the note is “metyrapone and oxazepam given together, ip”, the “influence on plasma concentration of the other drug” value was “did not influence”.

For orientation: Cmax means the maximum level reached in the sampled fluid or tissue. For orientation: AUC(0-inf) means total exposure, with the tail of the curve extrapolated.
